Experimental findings from PubChem BioAssay AID328 (DTP/NCI, 2004) are described below.

Molecules are shown by their SMILES. The list is a part of this screen's results and no random one: it is rich in T/C values a quarter to a half above the control, in often repeated tests (any T/C) and in doses without a T/C. Further doses and runs are listed elsewhere. T/C: endpoint of the treated group in % of that of the vehicle group. Some entries give survivors of the animals treated and no T/C: the source files T/C as zero there, which appears to mark a toxic dose or a test without result, not a measured value. Some doses without a T/C left all or most animals alive at the check, yet need not have been tolerated: survival well below the control is almost never listed, so the zero probably covers shortened survival too. Survivors were counted at the toxicity check, usually on the fifth day, unless a day is given; later deaths do not show. Schedules are NCI's codes, read here as Q, the interval in days (D) or hours (H), X, the number of doses. Some entries were tested several times; their values stand side by side, smallest first. For survival time, this PubChem deposit counts one and a half times the control or more as active, and values a quarter to a half above the control carry no call in these data; other NCI protocols may use other cut-offs. Some T/C values are followed by the survivors on the day toxicity was checked, most often the fifth; where none is given, no animal had died by that day.

The experiment relates to BDF1 mice, P388 leukemia ip, median survival T/C. The experiment is described as follows: NCI In Vivo Anticancer Drug Screen. Data for tumor model P388 Leukemia (intraperitoneal) in B6D2F1 (BDF1) mice. As to conditions: T/C endpoint: median survival time, higher T/C = longer survival. As to the method:
The antitumor activity of compounds was measured in mice bearing transplantable tumors. Survival or tumor size were measured and the results are expressed as the measurement made in the treated group (T) divided by the measurement made in the vehicle treated control group (C). The tumor model used in this assay is P388 Leukemia (intraperitoneal) in B6D2F1 (BDF1) mice

Setting [1] is: dose: 100.0 mg/kg/injection, schedule: Q04DX003 (ip), vehicle: alcohol.
Setting [2] is: dose: 200.0 mg/kg/injection, schedule: Q04DX003 (ip), vehicle: alcohol.
Where [3] appears, read: dose: 50.0 mg/kg/injection, schedule: Q01DX009 (ip), vehicle: saline with Tween-80.
[4] abbreviates: dose: 100.0 mg/kg/injection, schedule: Q01DX009 (ip), vehicle: saline with Tween-80.
Where [5] appears, read: dose: 200.0 mg/kg/injection, schedule: Q01DX009 (ip), vehicle: saline with Tween-80.
The mark [6] stands for this setting: dose: 400.0 mg/kg/injection, schedule: Q01DX009 (ip), vehicle: saline with Tween-80.
Setting [7] is: dose: 200.0 mg/kg/injection, schedule: Q01DX009 (ip), vehicle: saline.
[8] abbreviates: dose: 100.0 mg/kg/injection, schedule: Q01DX009 (ip), vehicle: saline.

Consider `Cc1cc(N(CCCl)CCCl)ccc1N=Nc1ccccc1C(=O)O`, for which the T/C runs as follows: (dose: 5.0 mg/kg/injection, schedule: Q01DX010 (ip), vehicle: saline) 140 % of control; (dose: 10.0 mg/kg/injection, schedule: Q01DX010 (ip), vehicle: saline) 145 % of control. In addition, the survivor count (dose: 40.0 mg/kg/injection, schedule: Q01DX010 (ip), vehicle: saline) is reported as 6 of 6.

As for `Nc1ccc2c(c1)OCO2`, the survivor count is given as 0 of 6 (dose: 200.0 mg/kg/injection, schedule: Q01DX009 (sc), vehicle: olive oil, sesame oil, peanut oil) and 0 of 6 (dose: 400.0 mg/kg/injection, schedule: Q01DX009 (sc), vehicle: olive oil, sesame oil, peanut oil).

Regarding `CO[C@H]1C[C@H](O[C@H]2CC[C@]3(C=O)[C@H]4CC[C@]5(C)[C@@H](C6=CC(=O)OC6)CC[C@]5(O)[C@@H]4CC[C@]3(O)C2)O[C@H](C)[C@H]1O[C@@H]1O[C@H](CO[C@@H]2O[C@H](CO)[C@@H](O)[C@H](O)[C@H]2O)[C@@H](O)[C@H](O)[C@H]1O`, the survivor count (dose: 2.0 mg/kg/injection, schedule: Q01DX010 (ip), vehicle: saline) is listed as 3 of 6.

For the compound `O=P(N1CCCC1)(N1CC1)N1CC1`, the T/C was 130 % of control (dose: 3.3 mg/kg/injection, schedule: Q04DX003 (ip), vehicle: saline); 134 % of control [5 of 6 alive] (dose: 5.0 mg/kg/injection, schedule: Q04DX003 (ip), vehicle: saline); 127 % of control (dose: 10.0 mg/kg/injection, schedule: Q01DX009 (ip), vehicle: saline); 125 % of control (dose: 25.0 mg/kg/injection, schedule: Q04DX003 (ip), vehicle: saline). Moreover, the survivor count (dose: 20.0 mg/kg/injection, schedule: Q01DX009 (ip), vehicle: saline) is recorded as 6 of 6 and the survivor count (dose: 50.0 mg/kg/injection, schedule: Q04DX003 (ip), vehicle: saline) is reported as 6 of 6.

As to `CN(C)c1ccc(C(=C2C=CC(=[N+](C)C)C=C2)c2ccc(N(C)C)cc2)cc1`, the survivor count reads like this: (dose: 3.12 mg/kg/injection, schedule: Q01DX009 (ip), vehicle: saline) 4 of 6; (dose: 6.25 mg/kg/injection, schedule: Q04DX003 (ip), vehicle: saline) 4 of 6; under setting [1], 6 of 6; under setting [2], 2 of 6; (dose: 400.0 mg/kg/injection, schedule: Q04DX003 (ip), vehicle: alcohol) 0 of 6.

For the compound `COC(=O)C(N)CCCCNc1ccc2c(cc1=O)C(NC(C)=O)CCc1cc(OC)c(OC)c(OC)c1-2` (configuration not stated), the T/C was 143 % of control (dose: 25.0 mg/kg/injection, schedule: Q01DX009 (ip), vehicle: saline with Tween-80); 133 % of control under setting [3]; 132 % of control (dose: 59.0 mg/kg/injection, schedule: Q01DX009 (ip), vehicle: saline with Tween-80); 141 % of control (dose: 88.0 mg/kg/injection, schedule: Q01DX009 (ip), vehicle: saline with Tween-80); 133 % of control under setting [4]; 135 % of control (dose: 132.0 mg/kg/injection, schedule: Q01DX009 (ip), vehicle: saline with Tween-80). The T/C under setting [5] was 136 % of control. Moreover, the survivor count under setting [6] was 4 of 6.

In the case of `CC1(C)N=C(N)N=C(N)N1c1cccc(OCCOc2ccc(NC(=O)CBr)cc2)c1`, where the note is “dose: 200.0 mg/kg/injection, schedule: Q01DX009 (ip), vehicle: saline sonified”, the survivor count was 1 of 6.

In the case of `Cc1ccc(-c2nc3ccccc3c(=O)n2/N=C/c2ccccc2)cc1`, the survivor count under setting [5] is listed as 6 of 6.

For the compound `CN([NH-])C(=S)[S-].CN([NH-])C(=S)[S-].[Ni]`, the T/C (dose: 100.0 mg/kg/injection, schedule: Q04DX003 (ip), vehicle: saline with Tween-80) was 125 % of control; the T/C (dose: 200.0 mg/kg/injection, schedule: Q04DX003 (ip), vehicle: saline with Tween-80) was 125 % of control; the T/C (dose: 400.0 mg/kg/injection, schedule: Q04DX003 (ip), vehicle: saline with Tween-80) was 127 % of control.

As to `CCN(CC)c1ccc(N)cc1`, the survivor count runs as follows: (dose: 50.0 mg/kg/injection, schedule: Q01DX009 (ip), vehicle: other) 0 of 6; (dose: 100.0 mg/kg/injection, schedule: Q01DX009 (ip), vehicle: other) 0 of 6; (dose: 200.0 mg/kg/injection, schedule: Q01DX009 (ip), vehicle: other) 0 of 6; (dose: 400.0 mg/kg/injection, schedule: Q01DX009 (ip), vehicle: other) 0 of 6.

Turning to `O=C1C=CC(=O)N1CN1CCOCC1`, the T/C is, setting by setting: (dose: 8.25 mg/kg/injection, schedule: Q01DX009 (ip), vehicle: saline) 133 % of control; (dose: 12.5 mg/kg/injection, schedule: Q01DX009 (ip), vehicle: saline) 125 % of control. The survivor count is 6 of 6 (dose: 26.0 mg/kg/injection, schedule: Q01DX009 (ip), vehicle: saline); 0 of 6 (dose: 40.0 mg/kg/injection, schedule: Q01DX009 (ip), vehicle: saline); 0 of 6 (dose: 60.0 mg/kg/injection, schedule: Q01DX009 (ip), vehicle: saline).

`OCC12COCN1COC2`: under setting [7], the T/C was 130 % of control.

In the case of `CC1(C)CCC(C)(C)c2c1ccc(O)c2Sc1c(O)ccc2c1C(C)(C)CCC2(C)C`, the T/C under setting [6] was 125 % of control.

As to `CCCCCCCCCCCC(=O)Oc1c(Cl)c(Cl)c(C#N)c(Cl)c1Cl`, the survivor count under setting [4] is recorded as 6 of 6.

Consider `CC(=O)n1ncc2ccc([N+](=O)[O-])cc21`, for which, where the note is “dose: 50.0 mg/kg/injection, schedule: Q01DX009 (ip), vehicle: water”, the T/C was 125 % of control.

Consider `OC1CC2CCC(C1)N2CCCN1c2ccccc2Sc2ccc(Cl)cc21` (configuration not stated), for which the survivor count under setting [8] was 5 of 6; the survivor count (dose: 200.0 mg/kg/injection, schedule: Q04DX003 (ip), vehicle: saline) is recorded as 2 of 6; the survivor count (dose: 400.0 mg/kg/injection, schedule: Q04DX003 (ip), vehicle: saline) is 0 of 6.

`CC1(c2ccccc2)O[C@@H]2C[C@H]3[C@@H]4CCC5=CC(=O)C=C[C@]5(C)[C@@]4(F)[C@@H](O)C[C@]3(C)[C@]2(C(=O)CO)O1` (some centres not stated): the T/C by setting is: under setting [1], 125 % of control [5 of 6 alive]; under setting [2], 125 % of control. Also, the survivor count was 6 of 6 under setting [7]; 2 of 6 and 5 of 6 (dose: 300.0 mg/kg/injection, schedule: Q04DX003 (ip), vehicle: saline).

For the compound `O=c1cc[nH]c2cc(C(F)(F)F)ccc12`, the survivor count (dose: 400.0 mg/kg/injection, schedule: Q04DX003 (ip), vehicle: saline sonified) was 2 of 6.

On to `OCCNCCNCC[OH2+].OCCNCCNCC[OH2+].[Ni+2].[O-][Cl+3]([O-])([O-])[O-]`, for which the survivor count reads like this: under setting [8], 4 of 6; under setting [7], 0 of 6.

For the compound `CN=C1C=C(NC)C(F)(F)C1(F)F`, the survivor count (dose: 50.0 mg/kg/injection, schedule: Q04DX003 (ip), vehicle: Klucel (hydroxypropylcellulose) (HPC)) is 4 of 6.

For the compound `CCCCN1CCCC(O)C1` (configuration not stated), the survivor count under setting [7] is on record as 4 of 6.

Consider `O=C(O)c1ccc(=O)oc1`, for which the T/C was 132 % of control under setting [3] and 128 % of control under setting [4].
